Experimental findings from patent US20240189331A1, “NOVEL […] FILM FORMULATION” (INTELGENX CORP., priority 2021, published 2024) are described below.

Structures are written as SMILES.

This data set is described as follows: In vitro permeability study in 6 station Franz diffusion cell apparatus using porcine buccal mucosa. To be noted: penetration enhancer in psilocybin film formulation, FIG. 4 and FIG. 5.

For `CCCCCCCCCCCCCCCC[n+]1ccccc1` [cetylpyridinium chloride (CPC), cetylpyridinium chloride], the “effect of penetration enhancer on psilocybin diffusion through porcine buccal mucosa” value is reported as “improved buccal permeation”. For the same compound, under “listed as cetylpyridinium chloride CPC”, the “effect of penetration enhancer on psilocybin diffusion through porcine buccal mucosa” value is on record as “significate increase”.
